# Experimental data: PubChem BioAssay AID2685 (National Center for Advancing Translational Sciences (NCATS), 2010)
# This is one part of the list. Shown are side measurements of this screen, not its main read-out; they come without a call. The list favours compounds with an active or inconclusive main result. Words in brackets tell the shape of the fitted curve; partial curves, single points and poor fits give uncertain potencies.
# Test: qHTS Assay for Lipid Storage Modulators in Drosophila S3 Cells;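 on cell number change: cells counted by Cell Tracker Red CMTPX staining in the red channel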
# Conditions: BODIPY lipid droplet fluorescence, 18-24 h; for cell number change: measured here: cell count max response, cells fed with added oleic acid
# In short: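 Drosophila S3 cells loaded with oleic acid (400 uM, as added) and compounds at several concentrations; lipid droplets imaged by 488-nm laser-scanning cytometry, 500–530 nm intensity and object ratio to cell channel. Percent activity normalized to 20 uM Triacsin C.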
# [1] = measured here: lipid fluorescence (Fed channel) AC50, cells fed with added oleic acid
# [2] = measured here: cell number channel AC50, cells fed with added oleic acid
Compound,cell number change [%],AC50 [1],AC50 [2]
N#Cc1ccsc1NC(=O)CCS(=O)(=O)c1ccccc1,-0.867,"0.184 µM [rising, full curve, poor fit]",–
Cc1cccc(Nc2ccccc2)c1,-20.8,–,–
CC(Sc1nc2c(cc1C#N)CCCCC2)C(=O)O (stereo unspecified),–,"0.112 µM [rising, full curve]",–
C=C(C)C(=O)OCC(=O)NCc1ccccc1,–,–,"6.51 µM [rising, single point]"
CCCC(=O)Nc1ccc(C(=O)/C=C/c2ccc(SC)cc2)cc1,-13.6,–,–
CCCc1cc(=O)[nH]c(SCC(=O)NC2(C#N)CCCCC2)n1,8.21,–,–
Cc1cc(NC(=O)c2c(-c3c(Cl)cccc3Cl)noc2C)n(C)n1,0.925,–,–
CCOc1cccc(-c2nnc3sc(-c4ccco4)nn23)c1,-9.3,"0.00461 µM [rising, full curve, poor fit]",–
CC(CNC(=O)c1cc(COc2c(F)cccc2F)on1)c1ccccc1 (stereo unspecified),-6.36,"18.4 µM [falling, single point]",–
Cc1cccc(-c2oc3ccc(-c4ccc5c(c4)OCO5)cc3c2C#Cc2cncn2C)c1,-16.2,"5.17 µM [falling, single point]",–
CCCCC(=O)Nc1ccc(NC(=S)NC(=O)CC(C)C)cc1OC,-12.1,"4.61 µM [falling, full curve]","2.06 µM [falling, single point]"
COc1ccc(N2CCN(C(=O)C3CCCN3S(=O)(=O)c3cccc4nsnc34)CC2)cc1 (stereo unspecified),–,"0.651 µM [rising, single point]",–
[N-]=[N+]=NCCN1CCN(Cc2ccccc2)CCC1=O,12.6,"1.3 µM [falling, full curve, poor fit]",–
CCOc1ccc(CNc2ccc(N3CCOCC3)c(C(=O)O)c2)cc1,5.18,–,"0.411 µM [falling, partial curve, poor fit]"
COc1ccc(/C=C2/CCc3ccccc3C2=O)cc1OC,11.2,"1.84 µM [rising, full curve]",–
COc1ccc(Nc2oc(-c3ccccc3)nc2C#N)cc1,20.1,"0.13 µM [rising, single point]","0.092 µM [rising, full curve, poor fit]"
CCn1cc(Cl)c(C(=O)Nc2nc3ccccc3n2CCN2CCCCC2)n1,3.94,–,–
O=S(=O)(c1cccs1)N1CCN(CC(O)COc2cc(Cl)ccc2Cl)CC1 (stereo unspecified),-29.2,–,"0.731 µM [rising, partial curve]"
Cc1c(O[C@@H]2O[C@H](CO)[C@@H](O)[C@H](O)[C@H]2O)ccc2c1oc(=O)c1ccccc12,–,"5.8 µM [rising, partial curve, poor fit]",–
O=C1NC(CCc2ccccc2)C(=O)N1Cc1ccc(Br)cc1 (stereo unspecified),31.4,–,–

# Entries of single compounds, quoted from the list.
# CCOc1ccc(CNc2ccc(N3CCOCC3)c(C(=O)O)c2)cc1 in the list: cell number change [%]: 5.18; AC50 [2]: 0.411 µM [falling, partial curve, poor fit]
# COc1ccc(/C=C2/CCc3ccccc3C2=O)cc1OC in the list: cell number change [%]: 11.2; AC50 [1]: 1.84 µM [rising, full curve]

# Next records follow:

Compound,cell number change [%],AC50 [1],AC50 [2]
COc1ccc2oc(C(=O)Nc3nc4ccccc4[nH]3)c(C)c2c1,-5.91,–,–
CCc1ccc(-c2cn(-c3nc(C)cc(C)n3)c(=N)o2)cc1,10.3,"6.51 µM [rising, single point]",–
CN1C(=O)C(C)(C)c2cc(S(=O)(=O)N3CCC(C(=O)NCc4ccccc4Cl)CC3)ccc21,7.49,"29.1 µM [falling, single point]",–
COc1ccccc1C(CNC(=O)c1ccc(S(=O)(=O)N2CCCCC2)cc1)N(C)C (stereo unspecified),6.69,"0.0291 µM [falling, full curve, poor fit]",–
Clc1ccc(CSc2nnc(-c3ccccn3)n2Cc2ccco2)c(Cl)c1,-14,"29.1 µM [falling, single point]",–
Cc1ccc2nc(C)c(C(=O)N/N=C/c3cccs3)cc2c1,–,"0.13 µM [rising, full curve, poor fit]","0.116 µM [rising, full curve, poor fit]"
Cc1cc(N2CCN(c3ccc(C(F)(F)F)cc3[N+](=O)[O-])CC2)c2ccccc2n1,-25.5,–,–
Cn1cccc1C(C#N)c1cccc(F)c1C#N (stereo unspecified),-1.43,–,"0.231 µM [falling, full curve, poor fit]"
C=C(C)CNC(=S)N/N=C/C1=CCC2CC1C2(C)C (stereo unspecified),-15.4,"25.9 µM [falling, single point]",–
Cc1cccc(-n2cnc(C(=O)N/N=C/c3ccccc3)c2)n1,–,"2.31 µM [rising, partial curve]","2.06 µM [rising, partial curve]"
COc1ccccc1NS(=O)(=O)c1cc(NC(=O)c2cc3ccccc3oc2=O)ccc1C,-0.754,"2.59 µM [rising, single point]",–
CCOc1ccc(S(=O)(=O)N2CCC(C(=O)NCCc3ccccc3)CC2)cc1,-18.3,"29.1 µM [falling, single point]",–
O=C(COc1ccccc1Cl)Nc1cc(Cl)ccc1Oc1ccccc1,27.8,–,–
Cc1ccc2cc(C(c3nnnn3C3CCCC3)N(Cc3cccnc3)Cc3ccco3)c(=O)[nH]c2c1 (stereo unspecified),-13.7,"3.26 µM [rising, partial curve]",–
CCOC(=O)c1sc2nc(CC(=O)OC)nc(N3CCN(c4ccccn4)CC3)c2c1C,-18.3,"13 µM [falling, partial curve, poor fit]",–
COCCCNS(=O)(=O)c1ccc2c(c1)OCCO2,30,"0.259 µM [falling, full curve]","0.206 µM [rising, full curve, poor fit]"
CC(C)(C)[C@]1(O)CCN2C[C@H]3c4ccccc4CCc4cccc(c43)[C@@H]2C1,-58.7,"14.6 µM [falling, partial curve]","14.6 µM [falling, partial curve]"
CCOC(=O)c1cnc(-n2nc(C)cc2C)nc1Nc1ccccc1OC,15.2,–,–
CCN(C(=O)COc1cc(=O)n(C)c2ccccc12)c1cccc(Cl)c1,2.01,"0.13 µM [rising, full curve, poor fit]",–
CCn1cnc2c([N+](=O)[O-])c(NS(=O)(=O)c3ccc(C)cc3)ccc21,-43.4,"2.59 µM [falling, full curve]","29.1 µM [falling, single point]"
